Measured data: PubChem BioAssay AID1259254 (NCATS, 2017)
In all, the deposit lists about 59,000 reagents; this is an unselected part. In the full data, about 1,550 (2.6%) are marked active. 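G2 share is only a proxy for re-replication; each gene was hit by three separate siRNAs, and active genes were retested.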 The numbers tell different reagents against one gene apart. Further read-outs or replicates are left out here. The record does not give: the amount of reagent.

- Screen: 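Finding genes that stop cells copying their DNA twice in one cycle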 (primary screen)
- Cell system: human HCT116 colorectal cancer cells
- Reagents: single siRNA against human genes
- Duration: 3 days
- Read-out: 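Nuclei stained with Hoechst and imaged; cell-cycle phase assigned by DNA content; G2 share scaled per plate, non-targeting siRNA 0%, GMNN siRNA 100%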
- Reading the numbers: G2 robust z-score and G2 cells, % of GMNN control: higher = more G2 cells, more excess DNA replication
- Active means: 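An siRNA counts as active if its G2 robust z-score lies at least 5 MADs above the screen median; here such calls match roughly 38% of GMNN control or more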

| target | reagent no. | G2 robust z-score | G2 cells, % of GMNN control | call |
| --- | --- | --- | --- | --- |
| CREB5 | 1 | -0.604 | -1.28 | inactive |
| CREB5 | 2 | 0.885 | 9.2 | inactive |
| CREB5 | 3 | 1.69 | 14.8 | inactive |
| CREB5 | 4 | 0.486 | 6.39 | inactive |
| CREB5 | 5 | 0.208 | 4.43 | inactive |
| CREB5 | 6 | 0.176 | 4.21 | inactive |
| IL18RAP | 1 | -0.326 | 0.677 | inactive |
| IL18RAP | 2 | -0.882 | -3.24 | inactive |
| IL18RAP | 3 | -0.905 | -3.4 | inactive |
| MLNR | 1 | -0.77 | -2.45 | inactive |
| MLNR | 2 | 1.18 | 11.2 | inactive |
| MLNR | 3 | 0.318 | 5.2 | inactive |
| ZNF25 | 1 | 1.79 | 15.5 | inactive |
| ZNF25 | 2 | -0.238 | 1.3 | inactive |
| ZNF25 | 3 | -0.33 | 0.649 | inactive |
| FNDC3B | 1 | -0.479 | -0.405 | inactive |
| FNDC3B | 2 | -0.118 | 2.14 | inactive |
| FNDC3B | 3 | 3.63 | 28.5 | inactive |
| IFI27L1 | 1 | 0.0123 | 3.05 | inactive |
| IFI27L1 | 2 | 5.5 | 41.7 | active |
| IFI27L1 | 3 | -0.97 | -3.86 | inactive |
| SCFD2 | 1 | 2.34 | 19.4 | inactive |
| SCFD2 | 2 | -1.05 | -4.39 | inactive |
| SCFD2 | 3 | -0.801 | -2.67 | inactive |
| CEPT1 | 1 | 1.13 | 10.9 | inactive |
| CEPT1 | 2 | 0.969 | 9.79 | inactive |
| CEPT1 | 3 | -1.23 | -5.71 | inactive |
